From PMC9832115

T1: DRC3 (mouse (endogenous in testis)) (UniProt Q9D5E4)
T1 sequence: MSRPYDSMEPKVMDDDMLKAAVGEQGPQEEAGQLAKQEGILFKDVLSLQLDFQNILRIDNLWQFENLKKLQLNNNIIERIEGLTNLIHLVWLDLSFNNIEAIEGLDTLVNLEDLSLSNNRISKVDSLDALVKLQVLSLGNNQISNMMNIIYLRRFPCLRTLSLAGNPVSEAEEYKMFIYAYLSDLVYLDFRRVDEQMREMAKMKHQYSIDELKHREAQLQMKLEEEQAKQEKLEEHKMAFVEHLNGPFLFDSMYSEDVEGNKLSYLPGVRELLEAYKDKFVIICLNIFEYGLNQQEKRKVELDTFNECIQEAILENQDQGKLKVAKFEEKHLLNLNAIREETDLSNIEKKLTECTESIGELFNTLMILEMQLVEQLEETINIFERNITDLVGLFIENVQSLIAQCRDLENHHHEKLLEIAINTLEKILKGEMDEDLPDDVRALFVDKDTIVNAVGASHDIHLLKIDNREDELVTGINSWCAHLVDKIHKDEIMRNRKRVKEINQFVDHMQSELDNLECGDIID


Target: T1, DRC3 (mouse (endogenous in testis))
Assay: affinity purification with mass spectrometry; immunoprecipitation-mass spectrometry, testicular protein from wild-type mice

binding	Binder
binds	IFT22 (protein, UniProt Q9DAI2 1-185) MLKAKILFVGPCESGKTVLANFLTESSDITEYNPTQGVRILEFENPHVTSNNKGTGCEFELWDCGGDSKFESCWPALMKDAHGVVIVFNADIPSHLKEIEMWYSCFVQQQFLQDSHCMLVAHHKPGSGGERGSLALSPPLNKLKLVHSNLEEDPEEVRVEFIKYLKSIINSMSESRDREEMLIIT
binds	IFT81 (protein, UniProt O35594 1-676) MSDQIKFIVDSLNKEPFKKNYNLITFDSLGPMQLLQVLNDVLAEIDPKQDVDIREEMPEQTAKRMLNLLGILKYKPPGNATDMSTFRQGLVIGSKPVIYPVLHWLLQRSNELKKRAYLARFLIKLEVPSEFLQDETVADTNKQYEELMEAFKTLHKECEQLKTSGFSTAEIRRDISAMEEEKDQLMKRVERLKKRVETVQNHQRMLKIARQLRVEKEREEFLAQQKQEQKNQLFHAVQRLQRVQNQLKSMRHAAADAKPESLMKRLEEEIKFNSYMVTEKFPKELESKKKELHFLQKVVSEPAMGHSDLLELETKVNEVNTEINQLIEKKMMRNEPIEGKLSLYRQQASIISRKKEAKAEELQETKEKLASLEREVLVKTNQTREFDGTEVLKGDEFKRYVSKLRSKSTVFKKKHQIIAEFKAEFGLLQRTEELLKQRQETIQHQLRTIEEKKGISGYSYTQEELERVSALKSEVDEMKGRTLDDMSEMVKKLNSLVSEKKSALAPVIKELRQLRQKCQELTQECDEKKAQYDSCAAGLESNRSKLEQEVRGLREECLQEESKYHYTNCMIKNLEVELRRATDEMKAYVSSDQQEKRKAIREQYTKNITEQENLGKKLREKQKAVRESHGPNMKQAKMWRDLEQLMECKKQCFLKQQSPASIGQVIQEGGEDRLVL

These are yes or no findings as the source states them, for the method shown. In cells and extracts the contact can be indirect. A yes stands for co-enrichment or nearness to the bait. Other partners may have been found.
